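Human melanoma cell lines in 1,536-well plates were treated with a pair of drugs for 72 h, then fixed, stained and imaged. The read-out is the fraction of cleaved-PARP-positive nuclei, in % of that fraction in the DMSO control; 200 means twice the control level of this apoptosis marker. Concentrations were fixed for each drug; these are the higher of two levels. The file gives one value for each pair and line, without errors, so small differences may be noise. The marker varies much from line to line, for technical or biological reasons.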 This is part of the screen, not chosen by result. An entry leaves out what has no value listed here. A dash means that no value is listed here.

Every entry is a combination with midostaurin at 0.4 µM: CO[C@@H]1[C@H](N(C)C(=O)c2ccccc2)C[C@H]2O[C@]1(C)n1c3ccccc3c3c4c(c5c6ccccc6n2c5c31)C(=O)NC4

| Partner | WM1716 | SK-MEL-30 | SK-MEL-2 |
|---|---|---|---|
| CC(=O)c1c(C)c2cnc(Nc3ccc(N4CCNCC4)cn3)nc2n(C2CCCC2)c1=O at 0.2 µM | 286 | 70.4 | 74.3 |
| N.N.[Cl][Pt][Cl] at 8 µM | 719 | 167 | 412 |
| C[C@]1(c2nc3c(C(N)=O)cccc3[nH]2)CCCN1 at 7 µM | 218 | 195 | 356 |
| C=CCNC1=C2C[C@@H](C)C[C@H](OC)[C@H](O)[C@@H](C)/C=C(\C)[C@H](OC(N)=O)[C@@H](OC)/C=C\C=C(/C)C(=O)NC(=CC1=O)C2=O at 0.01 µM | 297 | 165 | 264 |
| N#Cc1c(O)c2c(-c3ccc(-c4ccccc4O)cc3)csc2[nH]c1=O at 10 µM | 60.5 | 165 | 135 |
| O=C1NC(=O)/C(=C/c2ccc(-c3ccc(F)cc3O)o2)S1 at 5 µM | 122 | 65.0 | 209 |
| c1cc(-c2cnn3cc(-c4ccc(OCCN5CCCCC5)cc4)cnc23)ccn1 at 2 µM | 31.7 | 170 | - |
| O=C(Nc1cccc(Cl)c1)Nc1ncc(CCNc2ncnc3ccsc23)s1 at 0.004 µM | 693 | 112 | 208 |
| CN1CCN(c2ccc3nc(-c4c(N)c5c(F)cccc5[nH]c4=O)[nH]c3c2)CC1 at 0.5 µM | 77.6 | 88.7 | 333 |
| CCCCCCCCc1ccc(CCC(N)(CO)CO)cc1 at 10 µM | 17800 | 2210 | 1820 |
| Cn1nnc2c(C(N)=O)ncn2c1=O at 10 µM | 290 | 207 | 177 |
| Clc1ccc(Nc2nnc(Cc3ccncc3)c3ccccc23)cc1 at 10 µM | 2530 | 71.2 | 231 |
| CS(=O)(=O)CCNCc1ccc(-c2ccc3ncnc(Nc4ccc(OCc5cccc(F)c5)c(Cl)c4)c3c2)o1 at 4 µM | 496 | 371 | 272 |
| Cn1c(=O)n(-c2ccc(C(C)(C)C#N)cc2)c2c3cc(-c4cnc5ccccc5c4)ccc3ncc21 at 0.02 µM | 192 | 58.1 | 44.6 |
| C=CCn1c(=O)c2cnc(Nc3ccc(N4CCN(C)CC4)cc3)nc2n1-c1cccc(C(C)(C)O)n1 at 0.1 µM | 277 | 390 | 283 |
| COCC[n+]1c2c(n(Cc3cnccn3)c1C)C(=O)c1ccccc1C2=O at 0.002 µM | 299 | 813 | 1700 |
| CC(=O)O[C@@]12CO[C@@H]1C[C@H](O)[C@@]1(C)C(=O)[C@H](O)C3=C(C)[C@@H](OC(=O)[C@H](O)[C@@H](NC(=O)OC(C)(C)C)c4ccccc4)C[C@@](O)([C@@H](OC(=O)c4ccccc4)[C@H]21)C3(C)C at 0.0005 µM | 959 | 227 | 488 |
| CN(NC(=O)CC(=O)NN(C)C(=S)c1ccccc1)C(=S)c1ccccc1 at 0.03 µM | 83.5 | 184 | - |
| N#CC[C@H](C1CCCC1)n1cc(-c2ncnc3[nH]ccc23)cn1 at 5 µM | 649 | 243 | 140 |
| CCCCCCCCCCCCCCCCCCOP(=O)([O-])OC1CC[N+](C)(C)CC1 at 2 µM | 734 | 186 | 303 |
| NCC(=O)Nc1ccc(-n2nc(C(F)(F)F)cc2-c2ccc3c(ccc4ccccc43)c2)cc1 at 5 µM | 992 | 1070 | 1320 |
| CS(=O)(=O)c1ccc(C(=O)Nc2ccc(Cl)c(-c3ccccn3)c2)c(Cl)c1 at 5 µM | 270 | 136 | 165 |
| Cc1cc(N2CCOCC2)cc2[nH]c(-c3c(NC[C@@H](O)c4cccc(Cl)c4)cc[nH]c3=O)nc12 at 1 µM | 212 | 113 | 219 |
| CCCCCCCCCCCC1=C(O)C(=O)C=C(O)C1=O at 6 µM | 162 | 224 | 180 |
| NC1(c2ccc(-c3nc4ccn5c(=O)[nH]nc5c4cc3-c3ccccc3)cc2)CCC1 at 2 µM | 456 | 187 | 222 |
| CCN(CC)CCCCNc1ncc2cc(-c3cc(OC)cc(OC)c3)c(NC(=O)NC(C)(C)C)nc2n1 at 0.5 µM | 653 | 151 | 284 |
| Cc1nc(Nc2ncc(C(=O)Nc3c(C)cccc3Cl)s2)cc(N2CCN(CCO)CC2)n1 at 0.02 µM | 6140 | 307 | 148 |
| NC(=O)c1ccc(N(C(N)=O)c2c(F)cccc2F)nc1-c1ccc(F)cc1F at 2 µM | 313 | 154 | 92.7 |
| Cn1cnc2c(F)c(Nc3ccc(Br)cc3Cl)c(C(=O)NOCCO)cc21 at 0.075 µM | 91.0 | 124 | 213 |
| C[C@]12O[C@H](C[C@]1(O)CO)n1c3ccccc3c3c4c(c5c6ccccc6n2c5c31)CNC4=O at 0.02 µM | 33.8 | 154 | 108 |
| O=C(CCCCCCC(=O)Nc1ccccc1)NO at 0.4 µM | 363 | 280 | 428 |
| CC1(C)CCC(c2ccc(Cl)cc2)=C(CN2CCN(c3ccc(C(=O)NS(=O)(=O)c4ccc(N[C@H](CCN5CCOCC5)CSc5ccccc5)c(S(=O)(=O)C(F)(F)F)c4)cc3)CC2)C1 at 2 µM | 5910 | 334 | 379 |
| O=c1[nH]nc(Sc2ncc([N+](=O)[O-])s2)n1-c1ccc2c(c1)OCCO2 at 1 µM | 345 | 102 | 170 |
| O=c1cc(-c2cccc3c2Sc2ccccc2S3)oc(N2CCOCC2)c1 at 5 µM | 619 | 210 | 207 |
| C=C(c1ccc(C(=O)O)cc1)c1cc2c(cc1C)C(C)(C)CCC2(C)C at 10 µM | 114 | 128 | 178 |
| Nc1ccn([C@@H]2O[C@H](CO)[C@@H](O)C2(F)F)c(=O)n1 at 0.002 µM | 666 | 123 | 258 |

Some entries from above, unchanged:

- COCC[n+]1c2c(n(Cc3cnccn3)c1C)C(=O)c1ccccc1C2=O at 0.002 µM : WM1716: 299; SK-MEL-30: 813; SK-MEL-2: 1700
- CN(NC(=O)CC(=O)NN(C)C(=S)c1ccccc1)C(=S)c1ccccc1 at 0.03 µM : WM1716: 83.5; SK-MEL-30: 184
- C=CCNC1=C2C[C@@H](C)C[C@H](OC)[C@H](O)[C@@H](C)/C=C(\C)[C@H](OC(N)=O)[C@@H](OC)/C=C\C=C(/C)C(=O)NC(=CC1=O)C2=O at 0.01 µM : WM1716: 297; SK-MEL-30: 165; SK-MEL-2: 264

Data from the primary screen of doi:10.1371/journal.pone.0140310, rounded.